These results are taken from PubChem BioAssay AID330 (DTP/NCI, 2004).

The list is a part of this screen's results and no random one: it gathers tests that were run many times, whatever their T/C, doses with no T/C, and many T/C values between a quarter and a half above the control. Other doses and runs of a compound stand elsewhere. T/C: endpoint of the treated group in % of that of the vehicle group. Some entries give survivors of the animals treated and no T/C: the source files T/C as zero there, which appears to mark a toxic dose or a test without result, not a measured value. Some doses without a T/C left all or most animals alive at the check, yet need not have been tolerated: survival well below the control is almost never listed, so the zero probably covers shortened survival too. Counts of survivors are from the toxicity check (mostly the fifth day) where no day follows; animals may have died later. Schedule codes are those of the source, read here as Q, the interval in days (D) or hours (H), X, the number of doses. Some doses were run more than once; the values are given in rising order. For survival time, the PubChem record calls one and a half times the control and up active, and a quarter to a half above the control has no call in these data; cut-offs in other NCI protocols can differ. Some T/C values carry the count of animals alive at the toxicity check (mostly the fifth day); where none is given, no animal had died by that day.

The subject of this experiment is P388 leukemia ip, CD2F1 mice, survival T/C. The experiment is described as follows: NCI In Vivo Anticancer Drug Screen. Data for tumor model P388 Leukemia (intraperitoneal) in CD2F1 (CDF1) mice. The conditions noted are these: T/C endpoint: median survival time, higher T/C = longer survival.
Setting [1] is: dose: 25.0 mg/kg/injection, schedule: Q01DX009 (ip), vehicle: saline with Tween-80.
Where [2] appears, read: dose: 50.0 mg/kg/injection, schedule: Q01DX009 (ip), vehicle: saline with Tween-80.
Setting [3] is: dose: 100.0 mg/kg/injection, schedule: Q01DX009 (ip), vehicle: saline with Tween-80.
The mark [4] stands for this setting: dose: 200.0 mg/kg/injection, schedule: Q01DX009 (ip), vehicle: saline with Tween-80.
[5] abbreviates: dose: 200.0 mg/kg/injection, schedule: Q01DX005 (ip), vehicle: saline with Tween-80.
Setting [6] is: dose: 100.0 mg/kg/injection, schedule: Q01DX009 (ip), vehicle: water.
The mark [7] stands for this setting: dose: 400.0 mg/kg/injection, schedule: Q04DX003 (ip), vehicle: saline with Tween-80.
[8] abbreviates: dose: 400.0 mg/kg/injection, schedule: Q04DX003 (ip), vehicle: saline.
The mark [9] stands for this setting: dose: 100.0 mg/kg/injection, schedule: Q01DX009 (ip), vehicle: Klucel (hydroxypropylcellulose) (HPC).
Setting [10] is: dose: 200.0 mg/kg/injection, schedule: Q01DX009 (ip), vehicle: Klucel (hydroxypropylcellulose) (HPC).
[11] abbreviates: dose: 400.0 mg/kg/injection, schedule: Q01DX009 (ip), vehicle: Klucel (hydroxypropylcellulose) (HPC).
Setting [12] is: dose: 60.0 mg/kg/injection, schedule: Q01DX005 (ip), vehicle: saline with Tween-80.
The mark [13] stands for this setting: dose: 120.0 mg/kg/injection, schedule: Q01DX005 (ip), vehicle: saline with Tween-80.
[14] abbreviates: dose: 240.0 mg/kg/injection, schedule: Q01DX005 (ip), vehicle: saline with Tween-80.

Regarding `C=CC(=NC(C)C)NC(C)C`, the survivor count reads like this: (dose: 6.25 mg/kg/injection, schedule: Q01DX009 (ip), vehicle: saline with Tween-80) 0 of 6; (dose: 6.25 mg/kg/injection, schedule: Q01DX009 (ip), vehicle: saline) 0 of 6; (dose: 12.5 mg/kg/injection, schedule: Q01DX009 (ip), vehicle: saline with Tween-80) 0 of 6; under setting [1], 0 of 6; under setting [2], 0 of 6; under setting [3], 0 of 6. In addition, the survivor count under setting [4] was 0 of 6.

As for `CC1CC[P+](Cc2ccccc2)(c2ccccc2)CC1` (stereo not given), the survivor count runs as follows: (dose: 12.5 mg/kg/injection, schedule: Q04DX002 (ip), vehicle: saline) 2 of 6; (dose: 25.0 mg/kg/injection, schedule: Q04DX002 (ip), vehicle: saline) 0 of 6; (dose: 50.0 mg/kg/injection, schedule: Q04DX002 (ip), vehicle: saline) 0 of 6; (dose: 100.0 mg/kg/injection, schedule: Q04DX002 (ip), vehicle: saline) 0 of 6; (dose: 200.0 mg/kg/injection, schedule: Q04DX002 (ip), vehicle: saline) 0 of 6; (dose: 400.0 mg/kg/injection, schedule: Q04DX002 (ip), vehicle: saline) 0 of 6.

With `NP(N)(=O)NC(=O)c1ccc(F)cc1`, under setting [5], the survivor count is reported as 0 of 5.

For the compound `NC(CCC(=O)NC(CSC(c1ccccc1)(c1ccccc1)c1ccccc1)C(=O)NCC(=O)O)C(=O)O` (stereo not given), for the setting “dose: 480.0 mg/kg/injection, schedule: Q01DX005 (ip), vehicle: Klucel (hydroxypropylcellulose) (HPC)”, the survivor count is reported as 2 of 6.

In the case of `CCCCCCCCCCCCCCCC(=O)N(CCCCCCCCCN(CCCN(C)C)C(=O)CCCCCCCCCCCCCCC)CCCN(C)C`, the survivor count (dose: 50.0 mg/kg/injection, schedule: Q01DX009 (ip), vehicle: water) is 5 of 6; the survivor count under setting [6] is given as 3 of 6; the survivor count (dose: 200.0 mg/kg/injection, schedule: Q01DX009 (ip), vehicle: water) is recorded as 0 of 6; the survivor count (dose: 400.0 mg/kg/injection, schedule: Q01DX009 (ip), vehicle: water) is on record as 0 of 6.

Take `CCC(c1ccc2cc(OC)ccc2c1)C(C)(C)C(=O)F` (stereo not given): the T/C was 127 % of control under setting [1] and 127 % of control under setting [2]. In addition, the survivor count was 1 of 6 under setting [3]; 4 of 6 (dose: 100.0 mg/kg/injection, schedule: Q04DX003 (ip), vehicle: saline with Tween-80); 4 of 6 (dose: 200.0 mg/kg/injection, schedule: Q04DX003 (ip), vehicle: saline with Tween-80); 0 of 6 under setting [7].

For the compound `CCCCCCCC[N+](C)(C)Cc1ccc(Oc2ccc(C[N+](C)(C)CCCCCCCC)cc2)cc1`, the survivor count by setting is: (dose: 25.0 mg/kg/injection, schedule: Q04DX003 (ip), vehicle: saline) 5 of 6; (dose: 50.0 mg/kg/injection, schedule: Q04DX003 (ip), vehicle: saline) 0 of 6; (dose: 100.0 mg/kg/injection, schedule: Q04DX003 (ip), vehicle: saline) 0 of 6; (dose: 200.0 mg/kg/injection, schedule: Q04DX003 (ip), vehicle: saline) 1 of 6; under setting [8], 0 of 6.

With `N#C/C(=C/c1cccs1)c1ccc(Cl)cc1`, the survivor count (dose: 400.0 mg/kg/injection, schedule: Q04DX003 (ip), vehicle: Klucel (hydroxypropylcellulose) (HPC)) was 6 of 6.

With `Cc1cccc(C)c1N=CNc1c(C)cccc1C.[Cu+2]`, the T/C under setting [2] is recorded as 105, 114, 117, 134 % of control. The survivor count under setting [3] was 2 of 6 and 3 of 6; the survivor count under setting [4] is 5 of 6.

For the compound `C=C1CC(C)OC1=O` (stereo not given), under “dose: 400.0 mg/kg/injection, schedule: Q04DX002 (ip), vehicle: saline with Tween-80”, the survivor count is 4 of 6.

Take `CCCCCCCCCCCC[n+]1cc2ccccc2cc1C`: the T/C (dose: 12.5 mg/kg/injection, schedule: Q01DX005 (ip), vehicle: saline with Tween-80) was 129 [4 of 5 alive] and 137 % of control. For the same compound, the survivor count by setting is: (dose: 25.0 mg/kg/injection, schedule: Q01DX005 (ip), vehicle: saline with Tween-80) 3 of 5 and 4 of 5; (dose: 50.0 mg/kg/injection, schedule: Q01DX005 (ip), vehicle: saline with Tween-80) 0 of 5; (dose: 100.0 mg/kg/injection, schedule: Q01DX005 (ip), vehicle: saline with Tween-80) 0 of 5; under setting [5], 0 of 5.

On to `Nc1nc(N)c(-c2ccc(Cl)c(Cl)c2)c(CP(Cl)(Cl)(Cl)Br)n1`, for which the T/C (dose: 50.0 mg/kg/injection, schedule: Q01DX009 (ip), vehicle: Klucel (hydroxypropylcellulose) (HPC)) is 135 % of control. The survivor count by setting is: under setting [9], 1 of 6; under setting [10], 0 of 6; under setting [11], 0 of 6.

As for `CCOC(=O)/C=C/C(=O)NNS(=O)(=O)CC(N)C(=O)O` (stereo not given), the survivor count (dose: 400.0 mg/kg/injection, schedule: Q04DX003 (ip), vehicle: acid diluted with saline) is reported as 5 of 6.

Turning to `CC(=O)OCC1OC([S][Sb]([CH3])[CH3])C(OC(C)=O)C(OC(C)=O)C1OC(C)=O` (stereo not given), the T/C under setting [12] was 128 % of control. Further, the survivor count is 1 of 6 under setting [13] and 0 of 6 under setting [14].

As for `COc1ccc(-[n+]2noc(N)n2)cc1`, the survivor count under setting [6] is 3 of 6.

On to `CCOC(O)C(F)(F)F` (stereo not given), for which the survivor count under setting [8] is given as 1 of 6.

For `Cc1noc2c1N=C(c1ccccc1)CC(c1ccccc1)C2` (stereo not given), the survivor count under setting [9] was 6 of 6.

For the compound `COCC1OC2OC3C(COC)OC(OC4C(COC)OC(OC5C(COC)OC(OC6C(COC)OC(OC7C(COC)OC(OC8C(COC)OC(OC1C(O)C2O)C(O)C8O)C(O)C7O)C(O)C6O)C(O)C5O)C(O)C4O)C(O)C3O` (stereo not given) (tested in a mixture with another compound), the survivor count by setting is: (dose: 800.0 mg/kg/injection, schedule: Q01DX009 (ip), vehicle: Klucel (hydroxypropylcellulose) (HPC)) 0 of 6 and 2 of 6; (dose: 1600.0 mg/kg/injection, schedule: Q01DX009 (ip), vehicle: Klucel (hydroxypropylcellulose) (HPC)) 0 of 6; (dose: 3200.0 mg/kg/injection, schedule: Q01DX009 (ip), vehicle: Klucel (hydroxypropylcellulose) (HPC)) 0 of 6.

In the case of `CC(C)OC(CCCl)c1ccc(Cl)cc1` (stereo not given), under setting [7], the survivor count is 2 of 6.

As to `CCOC(=O)c1c(O)c(Cc2ccccc2)c(=O)n2c1[nH]c1cc(C)c(C)cc12`, the survivor count is, setting by setting: (dose: 30.0 mg/kg/injection, schedule: Q01DX005 (ip), vehicle: saline with Tween-80) 6 of 6; under setting [12], 6 of 6; under setting [13], 6 of 6; under setting [14], 6 of 6.

Consider `COC(=O)[CH2][Ge]([c]1ccccc1)[c]1ccccc1.COC(=O)[CH2][Ge]([c]1ccccc1)[c]1ccccc1`, for which the survivor count by setting is: (dose: 60.0 mg/kg/injection, schedule: Q01DX005 (ip), vehicle: Klucel (hydroxypropylcellulose) (HPC)) 6 of 6; (dose: 120.0 mg/kg/injection, schedule: Q01DX005 (ip), vehicle: Klucel (hydroxypropylcellulose) (HPC)) 5 of 6; (dose: 240.0 mg/kg/injection, schedule: Q01DX005 (ip), vehicle: Klucel (hydroxypropylcellulose) (HPC)) 2 of 6.

For `O=C1c2cc(Cl)ccc2-c2c(NC(=O)C(Cl)Cl)cc(Cl)cc21`, the survivor count is reported as 2 of 6 under setting [9] and 0 of 6 under setting [10].

`CCOC(=O)CC(C)(O)C1CC1` (stereo not given): the T/C under setting [11] was 125 % of control.
